Values quoted from earlier work, collected in patent US20230172935A1, “METHODS OF MONITORING KRAS MUTATIONS” (Cardiff Oncology, Inc., priority 2020, published 2023).
Some entries share one result that the patent states for a list of compounds.

System: metastatic CRC (mCRC)
Conditions: KRAS mutant patients, third- or later-lines; cited from earlier work

Compound: CNC(=O)c1cc(Oc2ccc(NC(=O)Nc3ccc(Cl)c(C(F)(F)F)c3)c(F)c2)ccn1 [regorafenib]
- median overall survival: 6-9 months
- median progression-free survival (PFS): 2-3 months

Compound: trifluridine/tipiracil
- median overall survival: 6-9 months
- median progression-free survival (PFS): 2-3 months
